# Source: PubChem BioAssay AID686943 (Drosophila RNAi Screening Center, 2013)
# Test: 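Knockdowns that increase or decrease active ERK after insulin receptor stimulation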 (primary screen)
# Cell system: Drosophila S2R+ haemocyte-like cells expressing YFP-tagged ERK (Rolled)
# Reagent: long dsRNA against Drosophila genes
# Challenge: insulin stimulation versus unstimulated cells; dose and duration not given
# Read-out: 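Antibody staining for doubly phosphorylated ERK divided by ERK-YFP signal, as plate z-scores, in insulin-treated and untreated cells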
# Direction: replicate 1, z-score of dpERK with insulin and replicate 2, z-score of dpERK with insulin: higher = more active ERK per ERK-YFP after insulin; replicate 1, z-score of dpERK under basal conditions: higher = more basal active ERK per ERK-YFP; replicate 1, z-score of ERK-YFP with insulin: higher = more YFP-tagged ERK signal
# In all, the deposit lists about 23,000 reagents; below is a random part of those with a known target gene and a result. 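Extra replicates exist only for a retested subset of genes; insulin dose and duration not given; both raised and lowered dpERK matter.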 The numbers tell different reagents against one gene apart. A plus sign joins genes that one reagent is predicted to hit. The record does not give: the amount of reagent, the time to read-out.
predicted target,reagent no.,"replicate 1, z-score of dpERK with insulin","replicate 2, z-score of dpERK with insulin","replicate 1, z-score of dpERK under basal conditions","replicate 1, z-score of ERK-YFP with insulin"
mRpL12 (mitochondrial ribosomal protein L12),1,0.92,0.34,1.14,-0.99
Pvf3 (PDGF- and VEGF-related factor 3),1,1.96,0.26,-1.55,0.1
Pvf3 (PDGF- and VEGF-related factor 3),2,1.36,0.94,0.63,0.13
Pvf3 (PDGF- and VEGF-related factor 3),3,-0.37,-0.06,-0.09,0.23
Pvf3 (PDGF- and VEGF-related factor 3),4,1.45,0.5,0.59,-0.25
fne (found in neurons),1,-3.3,-1.9,1.28,0.77
fne (found in neurons),2,-0.52,-0.24,-0.98,0.94
CG43134,1,0.54,0.9,0.25,0.09
CG18081,1,0.88,0.92,-1.05,0.06
Dscam1 (Down syndrome cell adhesion molecule 1),1,-0.92,-0.2,1.77,-0.08
Dscam1 (Down syndrome cell adhesion molecule 1),2,0.29,0.07,-0.52,-0.18
Dscam1 (Down syndrome cell adhesion molecule 1),3,0.29,0.34,-0.31,-0.28
Dscam1 (Down syndrome cell adhesion molecule 1),4,0.21,0.47,0.18,1.29
Dscam1 (Down syndrome cell adhesion molecule 1),5,-1.03,0.11,0.54,-0.51
Cdk9 (Cyclin-dependent kinase 9),1,3.19,6.68,-0.75,-0.29
hts (hu li tai shao),1,0.25,-0.1,0.13,0.42
Arl4 (ADP ribosylation factor-like 4),1,-0.01,0.39,0.34,0.14
Grl62c (Gustatory receptor-like 62c),1,0.19,0.38,0.2,0.32
niki (nimA-like kinase),1,0.47,0,1.25,0.09
Hcf (Host cell factor),1,-1.1,-0.62,-2.03,2.19
Cpr60D (Cuticular protein 60D),1,-0.8,-0.33,-0.26,0.78
Gr98c (Gustatory receptor 98c),1,-1.84,0.81,-0.24,-0.3

4 entries from above in another layout.
{"predicted target":"Dscam1 (Down syndrome cell adhesion molecule 1)","reagent no.":3,"replicate 1, z-score of dpERK with insulin":0.29,"replicate 2, z-score of dpERK with insulin":0.34,"replicate 1, z-score of dpERK under basal conditions":-0.31,"replicate 1, z-score of ERK-YFP with insulin":-0.28}
{"predicted target":"Dscam1 (Down syndrome cell adhesion molecule 1)","reagent no.":4,"replicate 1, z-score of dpERK with insulin":0.21,"replicate 2, z-score of dpERK with insulin":0.47,"replicate 1, z-score of dpERK under basal conditions":0.18,"replicate 1, z-score of ERK-YFP with insulin":1.29}
{"predicted target":"Dscam1 (Down syndrome cell adhesion molecule 1)","reagent no.":5,"replicate 1, z-score of dpERK with insulin":-1.03,"replicate 2, z-score of dpERK with insulin":0.11,"replicate 1, z-score of dpERK under basal conditions":0.54,"replicate 1, z-score of ERK-YFP with insulin":-0.51}
{"predicted target":"Cdk9 (Cyclin-dependent kinase 9)","reagent no.":1,"replicate 1, z-score of dpERK with insulin":3.19,"replicate 2, z-score of dpERK with insulin":6.68,"replicate 1, z-score of dpERK under basal conditions":-0.75,"replicate 1, z-score of ERK-YFP with insulin":-0.29}

The results go on:
predicted target,reagent no.,"replicate 1, z-score of dpERK with insulin","replicate 2, z-score of dpERK with insulin","replicate 1, z-score of dpERK under basal conditions","replicate 1, z-score of ERK-YFP with insulin"
Mcr (Macroglobulin complement-related),1,-0.15,-0.18,-0.47,0.49
CG43996 + CG43997,1,-0.95,0.13,-0.14,1.44
CG43996 + CG43997,2,-0.1,-0.26,0.02,0.33
CG30340,1,0.26,0.71,-0.68,-0.63
CG17999,1,0.22,0.14,-0.06,-0.08
CG15564,1,-0.8,-0.05,1.35,0.35
e(r) (enhancer of rudimentary),1,1.23,0.4,-0.57,-1.47
CG1695,1,-0.67,0.1,-0.62,0.36
CG1812,1,0.49,-0.71,-0.99,0.86
Or67c (Odorant receptor 67c),1,-0.04,0.17,-1.61,0.32
CG11816,1,-0.39,-0.27,-2.11,0.53
CG15237,1,-0.55,0.62,-0.48,-0.82
CG14760,1,0.45,1.08,0.08,-0.42
mEFTu2 (mitochondrial translation elongation factor Tu 2),1,0.96,-0.01,-0.48,-0.26
CheA75a (Chemosensory protein A 75a),1,-0.13,-0.02,-0.13,-0.28
"DCTN1-p150 (Dynactin 1, p150 subunit)",1,0.63,0.02,2.84,0.03
CG7381,1,0.15,0.54,0.04,-1.49
